The target in one assay is His-MICALL2 (human) (UniProt Q8IY33). The assay is described as follows: co-IP; HEK293 cells expressing His-MICALL2 and Flag-TRIM21 or their truncation mutants; immunoprecipitation with α-Flag or His antibody; Western blot. For orientation: In western blotting, separated proteins are transferred to a membrane and probed.
The target in assay [1] is Molecule interacting with CasL-like protein 2 (MICALL2), endogenous (human (endogenous in HCT8)) (UniProt Q8IY33). As to the kind of experiment: co-IP; endogenous proteins in HCT8 cell lysates; antibodies overnight at 4 °C, Protein A/G-Agarose; Western blot.

Chains of the proteins cited; added tags and fusions are not shown.
UniProt Q8IY33: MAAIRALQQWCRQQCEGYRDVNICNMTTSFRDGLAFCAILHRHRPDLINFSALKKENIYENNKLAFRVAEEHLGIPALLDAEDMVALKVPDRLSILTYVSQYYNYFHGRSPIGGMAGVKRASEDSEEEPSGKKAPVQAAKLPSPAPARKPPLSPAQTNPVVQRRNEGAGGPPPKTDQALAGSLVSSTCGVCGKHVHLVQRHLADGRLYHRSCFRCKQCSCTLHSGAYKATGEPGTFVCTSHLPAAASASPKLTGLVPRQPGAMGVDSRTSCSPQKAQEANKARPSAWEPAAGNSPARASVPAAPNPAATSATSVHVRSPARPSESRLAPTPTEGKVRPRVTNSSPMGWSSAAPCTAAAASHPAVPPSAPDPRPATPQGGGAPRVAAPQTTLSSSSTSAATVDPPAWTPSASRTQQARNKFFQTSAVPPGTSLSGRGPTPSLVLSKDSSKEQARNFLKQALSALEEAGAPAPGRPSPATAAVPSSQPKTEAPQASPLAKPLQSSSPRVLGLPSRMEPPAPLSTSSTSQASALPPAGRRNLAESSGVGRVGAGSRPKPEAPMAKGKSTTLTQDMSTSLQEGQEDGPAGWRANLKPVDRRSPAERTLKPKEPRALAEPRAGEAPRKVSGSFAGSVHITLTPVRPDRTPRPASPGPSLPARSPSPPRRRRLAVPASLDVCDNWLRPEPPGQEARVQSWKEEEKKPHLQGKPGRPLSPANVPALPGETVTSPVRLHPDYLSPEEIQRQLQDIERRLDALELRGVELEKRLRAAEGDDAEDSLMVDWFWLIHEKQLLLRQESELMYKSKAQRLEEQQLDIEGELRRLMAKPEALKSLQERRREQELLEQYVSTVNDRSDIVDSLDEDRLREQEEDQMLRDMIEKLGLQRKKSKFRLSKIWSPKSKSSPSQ
UniProt P19474: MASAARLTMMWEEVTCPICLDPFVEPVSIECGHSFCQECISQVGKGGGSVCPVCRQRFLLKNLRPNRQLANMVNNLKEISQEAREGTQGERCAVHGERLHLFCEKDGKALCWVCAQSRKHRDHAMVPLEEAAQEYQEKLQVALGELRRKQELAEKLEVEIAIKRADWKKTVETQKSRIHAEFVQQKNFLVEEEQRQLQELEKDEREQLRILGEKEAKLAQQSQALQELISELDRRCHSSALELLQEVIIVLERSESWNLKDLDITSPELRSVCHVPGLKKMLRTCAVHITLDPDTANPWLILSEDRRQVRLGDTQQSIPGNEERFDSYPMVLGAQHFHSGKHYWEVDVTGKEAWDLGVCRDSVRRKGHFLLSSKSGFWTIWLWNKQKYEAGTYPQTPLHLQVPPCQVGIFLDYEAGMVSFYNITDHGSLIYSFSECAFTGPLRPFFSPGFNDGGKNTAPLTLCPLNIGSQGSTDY

These are yes or no findings as the source states them, for the method shown. In cells and extracts the contact can be indirect. Some entries that bind do so weakly or less than the wild type.

In the case of Flag-TRIM21 (from UniProt P19474 1-475), the binding entry in the assay with His-MICALL2 (human) is “binds”.

Consider “Tripartite motif-containing protein 21 (TRIM21), endogenous (from UniProt P19474 1-475)”, for which, in assay [1], the binding result is given as “binds”.

For the origin of these results see publication PMC9615392.
